The full ranking holds about 33,000 sequences; the median of “E-score (-0.5 to 0.5)” is about -0.015, and the highest 2% start at about 0.3. Some of the results follow.
Target: T1, Abf1 (UniProt P14164)
T1 sequence: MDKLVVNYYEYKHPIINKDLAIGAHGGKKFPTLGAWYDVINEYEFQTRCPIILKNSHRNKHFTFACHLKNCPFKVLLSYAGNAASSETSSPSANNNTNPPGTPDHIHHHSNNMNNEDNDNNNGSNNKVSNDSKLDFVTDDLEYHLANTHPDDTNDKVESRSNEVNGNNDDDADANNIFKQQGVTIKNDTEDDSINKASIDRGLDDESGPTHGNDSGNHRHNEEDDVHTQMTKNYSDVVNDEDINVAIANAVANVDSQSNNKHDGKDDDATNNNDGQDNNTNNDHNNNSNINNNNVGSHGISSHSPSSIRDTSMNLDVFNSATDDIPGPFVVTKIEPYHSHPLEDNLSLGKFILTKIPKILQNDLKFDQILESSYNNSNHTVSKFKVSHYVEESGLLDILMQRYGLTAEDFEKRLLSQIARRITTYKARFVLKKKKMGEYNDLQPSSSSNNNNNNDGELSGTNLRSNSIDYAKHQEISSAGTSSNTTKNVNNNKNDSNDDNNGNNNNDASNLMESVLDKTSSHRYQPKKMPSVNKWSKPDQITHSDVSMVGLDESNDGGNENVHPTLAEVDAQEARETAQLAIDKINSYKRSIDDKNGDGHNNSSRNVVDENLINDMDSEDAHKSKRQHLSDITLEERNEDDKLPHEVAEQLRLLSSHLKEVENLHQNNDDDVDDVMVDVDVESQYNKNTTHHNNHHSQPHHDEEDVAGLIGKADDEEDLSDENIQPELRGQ
Assay: PBM E-score (8-mer binding enrichment) (E-score (-0.5 to 0.5)); higher = stronger / more preferred TF binding
Conditions: protein concentration: 200 nM; construct: GST-full length
Procedure, shortened: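 GST-tagged yeast TFs (full-length or DNA-binding domain) were made by PURExpress in vitro transcription/translation and applied at about 100-200 nM to universal all-10-mer Agilent arrays. The arrays were made double-stranded by primer extension, on fresh or once-stripped slides. Bound protein was detected with fluorescent anti-GST, and scans were normalised with masliner. Each ungapped eight-base word, pooled with its reverse complement, received an E-score (modified Wilcoxon-Mann-Whitney statistic) from the Universal PBM Analysis Suite.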

| Sequence | PBM E-score |
| --- | --- |
| CCACGTCA | 0.247 |
| CAGATACG | -0.0415 |
| AAACGCCT | -0.273 |
| AGATATGA | 0.105 |
| CGCTCAGC | 0.21 |
| CGTCTGCA | 0.125 |
| GAAATGTA | 0.194 |
| CGAGTGAA | -0.14 |
| GACTTCCA | -0.18 |
| CATCTCAA | 0.0491 |
| GTCTGAGA | 0.0698 |
| ATCTAGAC | -0.0647 |
| CTCGAAGA | -0.199 |
| TGACCGCA | 0.0759 |
| CAGAATAC | 0.0059 |
| AAATCTCA | 0.0662 |
| AATGTAAC | 0.0935 |
| CCCCGCAC | -0.22 |
| GAGGGTTA | -0.174 |
| TAAATGTA | 0.156 |
| AGGGTCAC | 0.0338 |
| CCAATCCG | 0.106 |
| AGCAAATC | 0.0918 |
| GGAGAGGA | -0.313 |
| ACGTCATC | 0.294 |

| Sequence | PBM E-score |
| --- | --- |
| AGCTAAGA | -0.117 |
| GAGTCAAA | 0.00766 |
| GCCGACCC | -0.189 |
| ACTGTTGC | 0.0743 |
| CCATGGGC | -0.148 |
| CATTCTCG | -0.135 |
| CAACACTC | 0.0627 |
| GGTGTGAC | -0.174 |
| ATTGATAC | 0.0766 |
| CACATAAA | 0.227 |
| GCCGTGTA | 0.239 |
| CGCCCATA | 0.0703 |
| TAGTCAGA | -0.142 |
| CTGAACTA | -0.171 |
| GGCGAGAA | 0.0803 |
| CCTTGACC | -0.201 |
| AGTCCGTG | -0.0678 |
| TTGCCCAA | -0.0732 |
| GTCGAGAC | -0.00305 |
| CGAGCGAA | -0.0729 |
| CGTCGTAG | 0.192 |
| ACGGCACG | 0.175 |
| TACTCACA | 0.0223 |
| CGTATGTA | 0.229 |
| AATTGCAG | -0.154 |

| Sequence | PBM E-score |
| --- | --- |
| AACTCATG | -0.128 |
| GAGGGTCC | -0.238 |
| GGCGGTCA | -0.0623 |
| TAGTTAAA | 0.12 |
| ACCCAGCC | -0.186 |
| GCGCCGAA | -0.0451 |
| CATGATCC | 0.00859 |
| CCGTGGGA | 0.0628 |
| CAGAGCCC | 0.00619 |
| CCTACCTA | -0.0209 |
| AAAGCCGA | -0.259 |
| TCGAACCA | -0.247 |
| CGTCGTCA | 0.24 |
| AGTCAGGC | 0.0254 |
| CATCTGAA | 0.06 |
| GAATCATC | 0.152 |
| GCTCGTAC | 0.0657 |
| GGCGGTTA | -0.237 |
| ACCGATTC | -0.225 |
| GCAAGAGA | -0.122 |
| AGCAGGAA | -0.0572 |
| CCGGAACG | -0.125 |
| AAGGATCT | -0.165 |
| CGAAACTC | -0.0892 |
| ATAGACTG | -0.13 |

| Sequence | PBM E-score |
| --- | --- |
| ATCCGAAT | 0.219 |
| CTGTGATA | 0.201 |
| AATACATG | 0.00322 |
| CGATATTC | 0.225 |
| ACCTCTAA | -0.0204 |
| AGGCTGGG | -0.164 |
| ACGACCAG | 0.301 |
| TGTATTAA | 0.126 |
| AGCATTAA | -0.00473 |
| CTGTGGTC | -0.285 |
| CTATCAGA | -0.134 |
| ACGCGCGC | 0.151 |
| AAACCCCA | -0.0864 |
| GGGGCCTA | -0.355 |
| CTATCAAG | 0.0452 |
| GTCTTCAC | 0.126 |
| GTAGTAAA | 0.0925 |
| ACAACTAC | -0.00862 |
| GCACGTAA | -0.0457 |
| ATCCGCAG | 0.104 |
| CGCTATAG | -0.297 |
| GTCTTCCA | -0.112 |
| ACATAATG | 0.127 |
| ACGATAAT | 0.303 |
| ATAATTAC | 0.261 |

Quoted from the listing:
Entry of ACGACCAG under PBM E-score: 0.301
Entry of ACGCGCGC under PBM E-score: 0.151
Entry of CGCTATAG under PBM E-score: -0.297
Entry of GGGGCCTA under PBM E-score: -0.355
Entry of ACGATAAT under PBM E-score: 0.303
Entry of ACAACTAC under PBM E-score: -0.00862
Entry of CTATCAGA under PBM E-score: -0.134

Later entries:

| Sequence | PBM E-score |
| --- | --- |
| CTGCGAAC | 0.126 |
| AAGGACAG | 0.00492 |
| GTTAGGTA | 0.127 |
| ATATCGTA | 0.203 |
| ATAGAGCC | -0.19 |
| GCGACGGA | 0.0544 |
| ACAGGAGG | -0.337 |
| AGATATAC | 0.0837 |
| AATGGAGG | -0.133 |
| CCAAGGTA | -0.0719 |
| GGCAGGTA | -0.196 |
| ATATTAGA | 0.209 |
| GTGTTAAA | 0.172 |
| CCATGCCG | 0.0676 |
| AAAGACTC | -0.122 |
| AGAAACGC | -0.132 |
| ATGTCCGG | -0.00994 |
| AAAGGAGA | -0.185 |
| ACCGGCTA | -0.0984 |
| GGAAGCGA | 0.0737 |
| GCTTGACC | -0.231 |
| AAGGATAA | -0.0479 |
| CTAATGTA | 0.0488 |
| GAAGAAAC | -0.133 |
| AAACTAAA | 0.0822 |

| Sequence | PBM E-score |
| --- | --- |
| ACAGCTAC | -0.0185 |
| GCTCGTCA | 0.259 |
| GGCTAACC | -0.214 |
| TGTAAACA | -0.0609 |
| CATCGCTA | 0.287 |
| CCGGAAAG | -0.205 |
| GTAGGTAA | -0.0914 |
| TAACCACA | 0.0853 |
| ATAACGCA | -0.0614 |
| ACGGTCAT | 0.146 |
| CGGGAAAG | -0.13 |
| CGCATTTC | -0.0669 |
| ACATGTAC | 0.0562 |
| CTCTGACC | -0.254 |
| CTTCTGTC | 0.123 |
| TGGATCAA | 0.0614 |
| ACGGATGC | -0.113 |
| ACCCATGA | -0.115 |
| ACCCCCGA | -0.223 |
| GCATACCA | -0.137 |
| CACGGAGC | 0.111 |
| GGACGTAA | 0.104 |
| GGGAACTA | -0.0326 |
| CCAAATCA | 0.0489 |
| GAGCCCGC | -0.19 |

2 successive records out of the list so far, for reference:

| Sequence | PBM E-score |
| --- | --- |
| ACGGATGC | -0.113 |
| ACCCATGA | -0.115 |

More records follow:

| Sequence | PBM E-score |
| --- | --- |
| ATCGCATC | 0.0782 |
| GATGAAGA | 0.0748 |
| GGCTCCAA | -0.147 |
| AGAGTGGC | -0.251 |
| AGTCTGTA | -0.278 |
| ATAGACCC | -0.0996 |
| CAGTCGAC | 0.137 |
| CTGTTTTC | -0.0882 |
| AACCTCTA | -0.167 |
| ACAGGAGC | -0.0079 |
| CTGCGCCA | -0.0463 |
| AACTTCGC | 0.0243 |
| TGTCCGAA | 0.2 |
| AGGTTGAG | -0.122 |
| ATAATGAC | 0.258 |
| AGCTCAAT | -0.0573 |
| AGTAGAGC | -0.168 |
| CTTACTCA | -0.139 |
| CCAGCAGG | -0.109 |
| GTGCGGTA | -0.0342 |
| ATAGAAAC | 0.0214 |
| AACGTATC | 0.18 |

Another view of part of the listing above.
Sequence | PBM E-score
CATCTCAA | 0.0491
AGCAAATC | 0.0918
ACGGCACG | 0.175
CTATCAGA | -0.134
